Data reported in PubChem BioAssay AID602254 (Broad Institute, 2012).
Among all 1,000 compounds or so, fewer than 10 were called active.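 The calls were made as follows: active = fitted half-maximal concentration no higher than twice the top valid tested dose, with signal falling; inconclusive = flat curve with 30 to 70% inhibition, or poor fit; inactive = the rest.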 Some of the results follow. Entries with a potency or affinity are not part of this list.

Each compound was assayed against Golgi-associated PDZ and coiled-coil motif-containing protein (Homo sapiens) (UniProt Q9HD26) (assay: CAL PDZ domain peptide-binding inhibitors, dose response, biochemical, fluorescence polarization, untagged CAL PDZ, cherry-pick, set 2 (AID 602254;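 also: 0% = DMSO neutral control and -100% = unlabeled peptide PRC23 positive control; more negative means stronger blocking of peptide binding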)). Settings: Purified CAL PDZ, TMR peptide fluorescence polarization; at 60 µM (top of the series).

| Structure (SMILES) | activity change, negative = inhibition |
| --- | --- |
| Cc1noc(C)c1COc1cccc(C(=O)OC(C)C#N)c1 (centres undefined) | inactive: -4% |
| CCOc1cc(N2CCOCC2)c(OCC)cc1NC(=O)CN1CCCC1 | inactive: 0.854% |
| Cc1cccc(C(=O)NCC(=O)OCC(=O)c2cc(C)n(CC3CCCO3)c2C)c1 (centres undefined) | inactive: 0.553% |
| CN(c1ccc(OCC(=O)NC2=NCCS2)cc1)S(=O)(=O)c1ccc(F)cc1 | inactive: -0.611% |
| NC(=S)NNc1cc(Cl)cc(Cl)c1 | inactive: 0.645% |
| O=C(c1ccc(S(=O)(=O)N2CCOCC2)cc1)N1CCN(c2ccc(F)cc2)CC1 | inactive: -0.073% |
| N#CCCN(Cc1cccnc1)C(=S)NC(=O)c1ccccc1 | inactive: -3.08% |
| CCOCCc1nnc(NC(=O)CCC2CCCCC2)s1 | inactive: -4.13% |
| CN(CC1COc2ccccc2O1)C(=O)c1cc(COc2c(F)cccc2F)on1 (centres undefined) | inactive: 0.514% |
| c1cc2c(cc1Cn1cnnn1)OCO2 | inactive: 0.28% |
| c1cnn(Cc2cnc(N3CCOCC3)s2)c1 | inactive: -1.61% |
| Cc1ccc(C(=O)NN2C(=O)c3ccc(S(=O)(=O)c4ccc(C(=O)O)cc4)cc3C2=O)cc1 | inactive: -1.61% |
| O=C(COC(=O)c1cc(S(=O)(=O)N2CCOCC2)ccc1Cl)Nc1ccc2c(c1)OCO2 | inactive: -0.354% |
| O=C(O)c1cccc(Cn2c(Cl)c(/C=N/NC(=O)c3cc4ccccc4cc3O)sc2=O)c1 | inactive: 22.6% |
| CCn1nc(C)c(CN2CCC(Oc3ccc(C(=O)N4CCCC4)cc3)CC2)c1C | inactive: -0.055% |
| COc1cc(C(=O)OCC(=O)N2CCCCC2C)ccc1OCc1c(C)noc1C (centres undefined) | inactive: -0.001% |
| Cc1cccc(CC(=O)NCC(=O)NCc2cc(=O)n(C)c(=O)n2C)c1 | inactive: 0.11% |
| CC(=O)N1CCN(C(=O)C2(NC(=O)Nc3ccc(C)cc3)CCCCC2)CC1 | inactive: 0.455% |
| CN(CCOc1ccccc1)C(=O)c1ccc2c(c1)OCO2 | inactive: 2.4% |
| O=C(CNC(=O)c1ccccc1)OCC(=O)c1ccccc1Cl | inactive: -0.018% |
| CCc1ccc(CNC(=O)C2CCCN(c3nnc(C)c4c(C)n(-c5ccccc5)nc34)C2)cc1 (centres undefined) | inactive: 3.14% |
| CCOc1cc(N2CCOCC2)c(OCC)cc1NC(=O)c1cc(C)cc(C)c1 | inactive: -0.962% |
| Cc1nn(-c2ccccc2)c2nc(C(Cl)(Cl)Cl)[nH]c(=O)c12 | inactive: 4.48% |
| COc1cccc(CNS(=O)(=O)c2ccc3c(c2)CC(C)N3C(=O)C2CC2)c1 (centres undefined) | inactive: -0.409% |

| Structure (SMILES) | activity change, negative = inhibition |
| --- | --- |
| COc1cc(OCC(=O)NC(C)C)cc2c1C(=O)O[C@@H](C)CCCC(=O)CCCCC2 | inactive: -1.29% |
| COc1ccc(S(=O)(=O)Nc2nccs2)cc1OC | inactive: 1.39% |
| COc1ccc(S(=O)(=O)NCCc2ccccc2)cc1 | inactive: 0.714% |
| O=C(Nc1c(F)cc(F)cc1Br)c1cc(-c2ccccc2)on1 | inactive: -5.52% |
| Cc1ccc(NC(=S)N(CCCN2CCCC2)Cc2cccn2Cc2ccc(Cl)cc2)cc1C | inactive: 7.5% |
| O=C(NCc1ccccc1)c1cc2ccccc2oc1=O | inactive: -0.916% |
| O=C(N/N=C/c1cccnc1)c1cccc(F)c1 | inactive: 3.21% |
| CN(C)CCNc1nc(S(=O)(=O)c2ccccc2)c(Cl)s1 | inactive: -0.085% |
| O=C(Nc1cccc(O)c1)c1ccc(NC(=O)C2CCCO2)cc1 (centres undefined) | inactive: 0.422% |
| O=C(Nc1cccc(Cl)c1)N1CCN(C/C=C/c2ccccc2)CC1 | inactive: -0.337% |
| Cc1ccccc1N1CCN(C2CCCN(C(=O)c3csc(C(C)C)n3)C2)CC1 (centres undefined) | inactive: -4.66% |
| CCN1CCN(c2ncc3c(n2)CC(c2cc(OC)c(OC)c(OC)c2)CC3=O)CC1 (centres undefined) | inactive: 0.893% |
| CC1CN(C(=O)COC(=O)c2cccc(S(=O)(=O)N3CCc4ccccc43)c2)CC(C)O1 (centres undefined) | inactive: -0.677% |
| Cc1cccc(/C(N)=N/OC(=O)c2cccs2)c1 | inactive: 1.54% |
| O=C(O)C1CC=CCC1C(=O)NCCCCc1ccccc1 (centres undefined) | inactive: -2.28% |
| CCCn1nnnc1NCc1cccc(Cl)c1 | inactive: 1.6% |
| CS(=O)(=O)N1CCc2cc(C(=O)OCC(=O)c3ccccc3)ccc21 | inactive: 2.93% |
| c1ccc(-c2cnc(CSc3nnc4ccccn34)o2)cc1 | inactive: 0.061% |
| NC(=NCCc1ccc(Cl)cc1)NS(=O)(=O)c1ccc(F)cc1 | inactive: 1.07% |
| CC(=O)Nc1ccc(-c2cc(NC(C)=O)n(-c3ccccc3)n2)cc1 | inactive: -0.873% |
| CN(CC(=O)NCC(=O)Nc1ccc(F)cc1)CC(=O)Nc1ccc(Cl)c(C(F)(F)F)c1 | inactive: 0.432% |
| CCCN(CC(=O)Nc1ccccc1C)C(=O)CCCc1c[nH]c2ccccc12 | inactive: -2.12% |
| CCN1CCN(S(=O)(=O)c2ccc(Cl)c(C(=O)Oc3ccc(CC(=O)OC)cc3)c2)CC1 | inactive: -0.496% |
| CCOC(=O)c1cccc(NC(=O)c2ccc(NC(=O)C3CCCO3)cc2)c1 (centres undefined) | inactive: 1.35% |

| Structure (SMILES) | activity change, negative = inhibition |
| --- | --- |
| COC(=O)c1sccc1NC(=O)c1cccc(Cl)c1 | inactive: -1.67% |
| CC(C)Oc1cccc(C(=O)C2CCCN(C(=O)CCn3cnnn3)C2)c1 (centres undefined) | inactive: 0.618% |
| CCOc1ccc(CN2CCN(Cc3cccn3-c3cccnc3)CC2CCO)cc1 (centres undefined) | inactive: -5.42% |
| Cc1ccc(NC(=S)Nc2ccc(OC(F)F)c(Cl)c2)cc1F | inactive: -3.18% |
| O=C1CN(C(=O)COc2ccc(F)cc2Br)c2ccccc2N1 | inactive: -1.17% |
| Cc1cccc(C)c1OCC(=O)N(Cc1ccc(N(C)C)cc1)C1CCS(=O)(=O)C1 (centres undefined) | inactive: 3.25% |
| Clc1cccc2c1CCN(Cc1nc(-c3cnccn3)no1)C2 | inactive: 2.75% |
| CC(C)(C)N(Cc1nc(-c2ccccc2)no1)C(=O)c1ccc2c(c1)OCO2 | inactive: 0.223% |
| CC(C)c1ccc(NC2CCCN(C(=O)c3ccnn3C)C2)cc1 (centres undefined) | inactive: -3.14% |
| O=C(Nc1ccccc1Cl)N1CCN(c2ccc3nnc(-c4ccccc4)n3n2)CC1 | inactive: 9.02% |
| CC(=O)Nc1ccc(NCC(=O)c2ccccc2)cc1 | inactive: 5.34% |
| CCSC1=N/C(=C\c2ccccc2)C(=O)N1 | inactive: -6.79% |
| CCSc1nnc(NC(=O)CN2C(=O)NC3(CCCC3)C2=O)s1 | inactive: -1.53% |
| COCC(C)N1CCC(Oc2cccc(C(=O)NCCc3ccccc3)c2)CC1 (centres undefined) | inactive: -1.25% |
| CCCCN1CC(COc2ccccc2)Oc2cccc(F)c2S1(=O)=O (centres undefined) | inactive: 2.86% |
| COC(=O)[C@H](CC(C)C)NC(=O)NCCC1=CCCCC1 | inactive: -1.98% |
| CC(=O)c1cccc(CN2CCN(CC=C(C)C)C(CCO)C2)c1 (centres undefined) | inactive: -0.044% |
| CCCCN1CC(CO)Oc2cccc(F)c2S1(=O)=O (centres undefined) | inactive: 0.284% |
| CC(C)n1ncc2c(C(=O)NCC(=O)Nc3ccccc3Br)cc(C3CC3)nc21 | inactive: 6.18% |
| CC(=O)N(c1ccc(C)cc1)S(=O)(=O)c1ccc(Cl)cc1 | inactive: -3.42% |
| Cc1sc(NC(=O)CN2CCCC2)nc1-c1ccc2c(c1)CCN2C(=O)c1cccc(F)c1 | inactive: 2.42% |
| O=C(CNC(=O)c1ccccc1F)OCC(=O)c1c[nH]c2ccccc12 | inactive: 2.21% |
| O=C(Nc1cnccn1)Nc1ccccc1F | inactive: 2.15% |
| CCOC(=O)c1sc(NC(=O)Nc2ccc(Cl)cc2)nc1C | inactive: 0.778% |

| Structure (SMILES) | activity change, negative = inhibition |
| --- | --- |
| CCCCCCC(=O)Nc1ccc(Br)cn1 | inactive: 0.397% |
| c1ccc(-c2ccccc2OCCOCCN2CCc3ccccc3C2)cc1 | inactive: -1.05% |
| CC(C)(C)n1ncc2c(=O)n(Cc3ccc(Cl)c(Cl)c3)cnc21 | inactive: -3.02% |
| Cc1c(NC2(C#N)CCCC2)c(=O)n(-c2ccccc2)n1C | inactive: 1.49% |
| O=C(COC(=O)c1cnccn1)Nc1ncc(C(F)(F)F)cc1Cl | inactive: -0.286% |
| COc1ccc(C2C(C(=O)N3CCOCC3)CCC(=O)N2c2ccc(OC)cc2)cc1 (centres undefined) | inactive: -0.127% |
| O=C(Cn1cnc(S(=O)(=O)N2CCCC2)c1)Nc1cccc(Br)c1 | inactive: 1.8% |
| Nc1ccc(Nc2nc(-c3cc4ccccc4oc3=O)cs2)cc1 | inactive: -1.41% |
| COc1ccccc1-c1ccc(SCc2ccc(F)cc2)nn1 | inactive: -3.29% |
| CCCCOc1ccc(NC(=O)Nc2nnc(C)s2)cc1 | inactive: -7.21% |
| COc1ccc(NC(C)=O)cc1NC(C)c1nc2sc(C)c(C)c2c(=O)[nH]1 (centres undefined) | inactive: -1.45% |
| Cc1cc(C(=O)NCC2COc3ccccc3O2)c2ccccc2n1 (centres undefined) | inactive: -4.37% |
| CCN(CC)c1ccc(NC(=O)C2CC(=O)N(Cc3ccccc3)C2)cc1 (centres undefined) | inactive: 0.173% |
| O=C(COC(=O)c1cccc(-n2cnnn2)c1)Nc1c(Cl)cccc1C(F)(F)F | inactive: 0.704% |
| O=C(N/N=C/c1ccc(OCc2ccccc2)cc1)c1ccc(O)cc1 | inactive: 1.59% |
| CC(NC(=O)COc1ccccc1)C(=O)N1CCN(c2ccc(F)cc2)CC1 (centres undefined) | inactive: -1.4% |
| CCn1c(/C=C/c2ccccc2C)nc2ccccc2c1=O | inactive: 1.73% |
| CN1CCN(C(=O)CC2C(=O)NCCN2Cc2ccc(-c3ccccc3)cc2)CC1 (centres undefined) | inactive: -0.985% |
| Cc1cccc(NC(=O)CN2C(=O)N/C(=C/c3cc(C)n(-c4cccnc4)c3C)C2=O)c1 | inactive: 1.04% |
| Cn1c(=O)c2[nH]c(CCc3ccncc3)nc2n(C)c1=O | inactive: 0.975% |
| CCN(CC(=O)NCc1cccs1)C(=O)c1ccccc1Cl | inactive: -2.3% |
| Cc1ccc(S(=O)(=O)N(C)c2ccc(OC(=O)c3cccs3)cc2)cc1C | inactive: 0.715% |
